Measured data: PubChem BioAssay AID1224828 (NIAID, 2016)

Aim: 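Regulators linking TLR4 signalling to p65 nuclear translocation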 (primary screen)
System: mouse RAW264.7 G9 macrophage reporter cells (GFP-p65, Tnf promoter-mCherry)
Reagents: siRNA pool against mouse genes, 100 nM
Timing: 2 days siRNA transfection, then 40 min LPS before fixation
Treatment: LPS (Salmonella minnesota R595) at 10 ng/ml
Measured: 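Imaged p65 nuclear translocation ratio, normalised to the plate median, converted to robust z-scores and averaged across two replicates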
Direction: p65 translocation robust z-score: higher = more nuclear NF-kappaB p65 after LPS than the plate median; nuclear/cytoplasmic p65 ratio: higher = more nuclear NF-kappaB p65
Call rule: 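Active if robust z is above 3.3 (negative regulators) or below -1.56, the Tlr4 control median (positive regulators); activity score 50 or more; control wells not called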
Calls: active = hit (p65 shift raised or lowered); inactive = no clear change
In all, the deposit lists about 17,000 reagents; shown is a random part of them. 762 of all reagents (4.5%) count as active. 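Active calls include both raised and lowered p65 entry, mostly lowered; wells with fewer than 50 cells lack a z-score.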 Raw values are not corrected between plates. No sequences are given here.

Knock-down of Cd151 (GeneID 12476) gave: p65 translocation robust z-score -0.2; nuclear/cytoplasmic p65 ratio, rep 1 = 1.42; nuclear/cytoplasmic p65 ratio, rep 2 = 1.37; low cell count flag enough cells to score; inactive.
Siae (GeneID 22619) showed p65 translocation robust z-score 0.45; nuclear/cytoplasmic p65 ratio, rep 1 = 1.52; nuclear/cytoplasmic p65 ratio, rep 2 = 1.26; low cell count flag enough cells to score; inactive.
For Ccm2 (GeneID 216527) the deposit lists p65 translocation robust z-score -0.05; nuclear/cytoplasmic p65 ratio, rep 1 = 1.56; nuclear/cytoplasmic p65 ratio, rep 2 = 1.81; low cell count flag enough cells to score; inactive.
Depletion of Fscn3 (GeneID 56223) resulted in: p65 translocation robust z-score -0.2; nuclear/cytoplasmic p65 ratio, rep 1 = 1.5; nuclear/cytoplasmic p65 ratio, rep 2 = 1.26; low cell count flag enough cells to score; inactive.
Ptgir (GeneID 19222) scored nuclear/cytoplasmic p65 ratio, rep 1 = 1.34; nuclear/cytoplasmic p65 ratio, rep 2 = 1.36; low cell count flag fewer than 50 cells per well; well left out of scoring; inactive.
For Gtf3c6 (GeneID 67371) the deposit lists p65 translocation robust z-score 0.48; nuclear/cytoplasmic p65 ratio, rep 1 = 1.52; nuclear/cytoplasmic p65 ratio, rep 2 = 1.47; low cell count flag enough cells to score; inactive.
Against Coa8 (GeneID 68020), the entry reads p65 translocation robust z-score -0.01; nuclear/cytoplasmic p65 ratio, rep 1 = 1.41; nuclear/cytoplasmic p65 ratio, rep 2 = 1.45; low cell count flag enough cells to score; inactive.
Knock-down of Sae1 (GeneID 56459) resulted in: nuclear/cytoplasmic p65 ratio, rep 1 = 1.25; nuclear/cytoplasmic p65 ratio, rep 2 = 1.14; low cell count flag fewer than 50 cells per well; well left out of scoring; inactive.
Silencing of Ndst1 (GeneID 15531) came out at: p65 translocation robust z-score -2.61; nuclear/cytoplasmic p65 ratio, rep 1 = 1.44; nuclear/cytoplasmic p65 ratio, rep 2 = 1.14; low cell count flag enough cells to score; active.
After knock-down of Src (GeneID 20779), the screen gave nuclear/cytoplasmic p65 ratio, rep 1 = 1.88; nuclear/cytoplasmic p65 ratio, rep 2 = 1.16; low cell count flag fewer than 50 cells per well; well left out of scoring; inactive.
After knock-down of Ren2 (GeneID 19702), the screen gave nuclear/cytoplasmic p65 ratio, rep 1 = 1.39; nuclear/cytoplasmic p65 ratio, rep 2 = 1.57; low cell count flag fewer than 50 cells per well; well left out of scoring; inactive.
Against Nlrp9b (GeneID 243874), the entry reads p65 translocation robust z-score -0.86; nuclear/cytoplasmic p65 ratio, rep 1 = 1.75; nuclear/cytoplasmic p65 ratio, rep 2 = 1.37; low cell count flag enough cells to score; inactive.
After knock-down of Otud5 (GeneID 54644) the results were nuclear/cytoplasmic p65 ratio, rep 1 = 1.53; nuclear/cytoplasmic p65 ratio, rep 2 = 1.13; low cell count flag fewer than 50 cells per well; well left out of scoring; inactive.
For Tac4 (GeneID 93670), the values are p65 translocation robust z-score 0.09; nuclear/cytoplasmic p65 ratio, rep 1 = 1.38; nuclear/cytoplasmic p65 ratio, rep 2 = 1.22; low cell count flag enough cells to score; inactive.
For Nr1h2 (GeneID 22260), the entry reads p65 translocation robust z-score 0.15; nuclear/cytoplasmic p65 ratio, rep 1 = 1.15; nuclear/cytoplasmic p65 ratio, rep 2 = 1.42; low cell count flag enough cells to score; inactive.
Mfsd1 (GeneID 66868) gave nuclear/cytoplasmic p65 ratio, rep 1 = 1.37; nuclear/cytoplasmic p65 ratio, rep 2 = 1.57; low cell count flag fewer than 50 cells per well; well left out of scoring; inactive.
Against Ftl1 (GeneID 14325), the entry reads p65 translocation robust z-score 0.36; nuclear/cytoplasmic p65 ratio, rep 1 = 1.72; nuclear/cytoplasmic p65 ratio, rep 2 = 1.44; low cell count flag enough cells to score; inactive.
After knock-down of Aqr (GeneID 11834), the record shows nuclear/cytoplasmic p65 ratio, rep 1 = 1.27; nuclear/cytoplasmic p65 ratio, rep 2 = 2.09; low cell count flag fewer than 50 cells per well; well left out of scoring; inactive.
With knock-down of St6galnac2 (GeneID 20446), the record shows p65 translocation robust z-score 1.35; nuclear/cytoplasmic p65 ratio, rep 1 = 1.59; nuclear/cytoplasmic p65 ratio, rep 2 = 1.41; low cell count flag enough cells to score; inactive.
For Lsm11 (GeneID 72290), the values are p65 translocation robust z-score 0.11; nuclear/cytoplasmic p65 ratio, rep 1 = 1.64; nuclear/cytoplasmic p65 ratio, rep 2 = 1.64; low cell count flag enough cells to score; inactive.
Against Utrn (GeneID 22288), the entry reads p65 translocation robust z-score -0.56; nuclear/cytoplasmic p65 ratio, rep 1 = 1.44; nuclear/cytoplasmic p65 ratio, rep 2 = 1.42; low cell count flag enough cells to score; inactive.

Entries listed so far whose gene name begins with F or f:
Fscn3 (GeneID 56223): p65 translocation robust z-score = -0.2; nuclear/cytoplasmic p65 ratio, rep 1 = 1.5; nuclear/cytoplasmic p65 ratio, rep 2 = 1.26; low cell count flag = enough cells to score; Call = inactive
Ftl1 (GeneID 14325): p65 translocation robust z-score = 0.36; nuclear/cytoplasmic p65 ratio, rep 1 = 1.72; nuclear/cytoplasmic p65 ratio, rep 2 = 1.44; low cell count flag = enough cells to score; Call = inactive
